Measured values taken from the supplement of paper PMC3334620.
The full ranking holds about 33,000 sequences; the median of “E-score (-0.5 to 0.5)” is about -8e-05, and the highest 2% start at about 0.23. The list shows a part of the results.

target: T1, Nrg2 (UniProt P38082); assay: PBM E-score (8-mer binding enrichment) (E-score (-0.5 to 0.5)); higher = stronger / more preferred TF binding; conditions: protein concentration: 100 nM; construct: GST-full length
T1 sequence: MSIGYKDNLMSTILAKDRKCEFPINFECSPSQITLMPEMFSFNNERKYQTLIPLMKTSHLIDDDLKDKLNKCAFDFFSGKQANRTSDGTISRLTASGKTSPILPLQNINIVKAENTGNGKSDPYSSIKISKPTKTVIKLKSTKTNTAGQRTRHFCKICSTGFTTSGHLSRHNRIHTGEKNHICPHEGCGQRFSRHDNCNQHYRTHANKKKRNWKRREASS
Method in brief: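 Using PURExpress in vitro transcription/translation, GST-tagged yeast transcription factors were made in full-length or DNA-binding-domain form. These were applied at about 100-200 nM to double-stranded universal all-10-mer Agilent arrays, and bound protein was detected with fluorescent anti-GST. Scans were normalised with masliner before the Universal PBM Analysis Suite assigned E-scores to ungapped eight-base words pooled with their reverse complements.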

Sequence | PBM E-score
AACAGCTC | -0.126
GCGCCCCA | 0.146
AGCAGGTG | 0.0329
ACGATTAT | 0.0891
AACCGCCT | -0.0624
ACAGTTTG | 0.0285
AAGCTAAA | 0.0399
CAGTTGCG | 0.152
AGCGGGCA | -0.267
CGGTCACC | -0.194
ATTTTGAG | 0.0761
CAAATGGA | -0.0362
CAAGCCAG | -0.0229
AGCCTATC | -0.125
ACTGTACG | 0.0573
ACACTGGT | 0.015
ATAACGTG | 0.0373
AATCCACC | 0.0397
CGAGCCAG | 0.00961
CCGTACAA | -0.0184
CGTGCTCC | -0.0464
GCTCCATA | -0.0854
ACCCCGGG | -0.056
GGGAGTCA | -0.194
ATTATCGG | -0.142

A few values from the results shown:
ACTGTACG | PBM E-score: 0.0573
AATCCACC | PBM E-score: 0.0397

Reformatted: results already given
Sequence,PBM E-score
CAAGCCAG,-0.0229
ACTGTACG,0.0573

Later entries

Sequence | PBM E-score
GACAGAAC | 0.15
ACCCCATG | 0.217
ATAACCAT | -0.0483
CTGCAAGA | 0.027
CAAAGAAA | 0.0775
TTCCGGAA | -0.0157
AAATCCGT | -0.0623
GACTCTCC | -0.123
GACTGACA | 0.0589
AAGCTACT | 0.0546
ATTCGGTG | -0.0414
AGAGTCCA | 0.0952
ACCTTGCG | 0.0985
CTACCGGC | -0.136
AGTCACGA | -0.102
CTCTCACA | 0.124
CCGGAGGC | -0.299
CGTTACTA | -0.00046
AAGCGCTC | 0.0396
CTGTGAGA | -0.0945
GTGTGCCA | -0.0505
ATTATCCG | 0.102
AAGTCAAT | 0.0717
ATTCCTAC | -0.03
AGCGCTAT | 0.216

Sequence | PBM E-score
AAGACCGA | -0.018
GCAGTTCA | 0.0604
CGTTCTGA | -0.144
CCGGGTTA | -0.137
CAGGTTTC | 0.191
AGAACTCG | 0.0238
ACATACCA | -0.15
CTCATTCC | 0.00679
GGTCGGGA | 0.114
ACGTAACT | -0.167
CCGGATCG | -0.0652
ATTGCGGG | 0.13
AACGTTAT | 0.0154
GATGACGC | 0.0101
AGTATTTG | -0.0158
AGAGCAAC | -0.153
GAAAGACA | 0.186
CGCATGGC | 0.0447
CGGCAATC | -0.0308
TAGTAACA | 0.146
AAATTGTA | 0.0349
GCAGCTTA | 0.00295
CCCCAAGA | 0.133
ACGAGTTA | 0.119
ATTGTATG | 0.133

Sequence | PBM E-score
AATGCCTC | 0.0271
CAGCCGTC | -0.00512
CGCTATTC | 0.0887
GTCTTGTA | -0.0471
ATCTGGCC | -0.0845
ATACCGCC | -0.0749
TAATTGCA | 0.108
GTCTAGAC | -0.115
CCTCCCAC | -0.139
TAATGGTA | 0.00182
GTAAGTAC | -0.086
CTTATGCA | 0.058
AGATTACC | 0.00574
ACCAAATC | -0.0228
AGGTTCTC | 0.0154
CTTCGGCA | -0.077
GCCTGCTA | -0.177
CCACCCAC | 0.0597
AGTGAGGC | -0.0681
AGCACGAA | 0.199
GACATATA | 0.0429
TCAAACGA | -0.0605
CACGGACA | 0.0646
TACTGCGA | -0.044
AGGCCCCT | 0.0783

Sequence | PBM E-score
CATTTTAC | 0.194
ATTCATTC | 0.181
AGACATCC | -0.0665
AGCCATAA | 0.0366
GAGACTTA | -0.17
AAGCGTAA | -0.133
CTCCATGA | 0.072
AGAAGTCA | 0.143
CTCCTGCA | -0.117
AGGCGCGC | 0.0865
ATACTGTC | 0.256
ATGTTTAA | -0.114
AGAGAACG | -0.0754
GAGTCTAA | -0.0937
CGGCTACG | -0.157
ACAAAGGG | -0.00555
CGACAGAA | 0.158
CGTGTTAA | 0.0118
GGCACACA | -0.166
CATCCGAG | -0.0567
CGTGCCAC | -0.0584
GCTTTCAA | 0.0938
ACAGGCTC | -0.159
ATTGCTAG | 0.007
GGAGCTCA | -0.0201

Sequence | PBM E-score
GGGGTAAC | -0.0962
CGGTTCAA | -0.0731
AGCGTGGA | -0.198
ATCACAAA | 0.0935
GCCAGGGA | 0.207
CTCAGAAC | 0.0823
AGTCCTTA | -0.115
CCGTTAAA | -0.0965
CACAGCCG | -0.00785
AACATCGA | 0.106
ATACGTTC | -0.138
CAAATCGA | -0.0125
ACTCTATC | -0.0468
GGTGCTTA | -0.105
CCGCAATA | 0.206
CAACAAAG | 0.132
ACCCGGCA | -0.028
GACGCCGC | -0.068
GATACGAA | 0.0113
ACAGTACG | 0.149
ATGCGCAT | 0.368
ATCGGGCG | -0.0126
AATAGTAC | -0.0053
CGATGAGC | -0.0638
CGTACGAG | -0.081

Sequence | PBM E-score
CGTTTGAA | 0.00719
AAGGTGGC | -0.132
CTATGAAG | -0.0859
GCGTGAAC | -0.0729
AGTAAAAA | 0.0662
GCTCTGTA | -0.0163
ATCTCCTC | 0.0366
CTACGCTC | -0.069
AGTAGGGA | -0.0186
ACGGGGGG | -0.417
AATATTCC | 0.233
AATGAACC | 0.00986
ACCACCGT | -0.109
CGGCGCAC | 0.0314
CCGAATGA | 0.00868
AGCCTCAC | -0.0991
CCGTCGAG | 0.124
GCGCCCCC | -0.295
ATTTTGCG | 0.107
AAATAATT | 0.243
AAGGGTTA | 0.076
AATACTGT | 0.161
AACCTGAT | 0.0634
CACCGGCG | 0.115
GGCAGAGA | 0.0271

2 entries from above in a different format:

| Sequence | PBM E-score |
| --- | --- |
| CCGTCGAG | 0.124 |
| AAGGGTTA | 0.076 |

The listing continues:

Sequence | PBM E-score
AATATAAG | 0.258
CCAGCTTA | -0.0886
TGACGCAA | 0.157
AACTGCAT | 0.232
CAATCCTC | -0.1
AATATGCT | 0.017
ACGAATCA | 0.162
CGGCCATC | -0.277
ATGGAGCC | -0.221
TAATGTGA | 0.112
AGAAGTTG | -0.0165
AGTGGGGG | -0.399
GTAGTTCA | -0.0407
CAAGGCAC | -0.00388
CTGTGGAC | -0.00566
CCCCGGGC | -0.242
GTACCTGA | 0.0223
TATAAGCA | 0.0871
AAGCACTG | 0.064
AACTCCTA | 0.0887
AGATATTG | 0.129
GAGGACTC | -0.292
CCGTTTGC | -0.0133
AGACGCAG | -0.069
CTTACCGC | -0.0617

Sequence | PBM E-score
CGTGAGGA | -0.0766
ACTCAACA | 0.187
GGACCGCA | -0.0478
CTACCAAC | -0.0572
AGTTACCC | -0.0644
GACGCTGC | -0.136
GCCAATGA | -0.145
CAGTTTTA | 0.0445
ACTAAAGA | -0.0154
ACCCTAGA | 0.284
CCAGGTAG | -0.12
CAGTCCAC | -0.0861
CTTCAAAG | -0.225
ATCAGGAT | 0.0778
GCTTATCC | -0.0275
CAATTCGA | -0.135
ATGTACAG | -0.0816
CGACGTAG | -0.188
ATCCGGAT | 0.0929
